# Measurements: paper PMC9950491
# Chains of the proteins cited; added tags and fusions are not shown. Residues count along the entry.
# UniProt Q13158: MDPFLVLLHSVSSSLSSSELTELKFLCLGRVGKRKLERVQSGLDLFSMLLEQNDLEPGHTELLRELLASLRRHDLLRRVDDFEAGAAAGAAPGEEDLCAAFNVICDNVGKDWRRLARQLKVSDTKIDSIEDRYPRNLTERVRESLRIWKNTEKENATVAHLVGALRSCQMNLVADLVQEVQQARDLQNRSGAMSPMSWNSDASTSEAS
# UniProt O14763, residues 56-440: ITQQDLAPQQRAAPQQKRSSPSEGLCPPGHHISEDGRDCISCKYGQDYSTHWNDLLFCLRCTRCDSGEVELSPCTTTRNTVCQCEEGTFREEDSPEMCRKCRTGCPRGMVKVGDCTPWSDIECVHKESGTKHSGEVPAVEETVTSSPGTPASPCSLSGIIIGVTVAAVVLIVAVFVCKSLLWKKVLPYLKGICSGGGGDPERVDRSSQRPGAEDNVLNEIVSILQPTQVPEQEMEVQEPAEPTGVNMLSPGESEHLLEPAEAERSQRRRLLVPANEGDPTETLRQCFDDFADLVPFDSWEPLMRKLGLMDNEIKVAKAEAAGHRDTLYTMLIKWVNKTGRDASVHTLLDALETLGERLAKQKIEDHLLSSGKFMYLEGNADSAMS
# UniProt O55143: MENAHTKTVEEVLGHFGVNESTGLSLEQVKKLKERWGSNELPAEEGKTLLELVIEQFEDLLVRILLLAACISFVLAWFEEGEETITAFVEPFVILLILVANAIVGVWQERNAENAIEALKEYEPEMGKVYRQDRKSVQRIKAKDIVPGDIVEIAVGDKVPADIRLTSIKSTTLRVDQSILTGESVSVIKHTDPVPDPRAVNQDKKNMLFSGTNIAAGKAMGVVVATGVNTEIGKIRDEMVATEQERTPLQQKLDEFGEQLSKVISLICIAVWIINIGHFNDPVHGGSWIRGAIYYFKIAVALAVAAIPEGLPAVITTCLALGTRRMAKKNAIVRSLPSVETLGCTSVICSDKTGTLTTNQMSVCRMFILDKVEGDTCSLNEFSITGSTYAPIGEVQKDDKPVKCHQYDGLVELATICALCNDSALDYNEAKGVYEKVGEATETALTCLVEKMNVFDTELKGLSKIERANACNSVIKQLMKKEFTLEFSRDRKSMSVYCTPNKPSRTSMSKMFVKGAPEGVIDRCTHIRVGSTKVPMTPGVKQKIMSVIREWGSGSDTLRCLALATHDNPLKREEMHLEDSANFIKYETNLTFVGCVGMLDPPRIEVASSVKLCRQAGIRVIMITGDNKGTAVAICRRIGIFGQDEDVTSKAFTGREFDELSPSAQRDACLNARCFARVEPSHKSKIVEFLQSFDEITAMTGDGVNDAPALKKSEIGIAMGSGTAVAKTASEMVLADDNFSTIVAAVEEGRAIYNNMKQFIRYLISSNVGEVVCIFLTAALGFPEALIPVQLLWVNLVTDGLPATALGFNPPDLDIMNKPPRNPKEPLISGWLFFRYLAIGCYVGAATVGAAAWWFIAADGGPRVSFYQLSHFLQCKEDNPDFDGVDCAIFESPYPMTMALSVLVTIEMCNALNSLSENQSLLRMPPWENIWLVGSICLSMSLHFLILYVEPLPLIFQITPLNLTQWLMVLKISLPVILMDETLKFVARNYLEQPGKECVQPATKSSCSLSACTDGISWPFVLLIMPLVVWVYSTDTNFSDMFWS
# UniProt A8C756: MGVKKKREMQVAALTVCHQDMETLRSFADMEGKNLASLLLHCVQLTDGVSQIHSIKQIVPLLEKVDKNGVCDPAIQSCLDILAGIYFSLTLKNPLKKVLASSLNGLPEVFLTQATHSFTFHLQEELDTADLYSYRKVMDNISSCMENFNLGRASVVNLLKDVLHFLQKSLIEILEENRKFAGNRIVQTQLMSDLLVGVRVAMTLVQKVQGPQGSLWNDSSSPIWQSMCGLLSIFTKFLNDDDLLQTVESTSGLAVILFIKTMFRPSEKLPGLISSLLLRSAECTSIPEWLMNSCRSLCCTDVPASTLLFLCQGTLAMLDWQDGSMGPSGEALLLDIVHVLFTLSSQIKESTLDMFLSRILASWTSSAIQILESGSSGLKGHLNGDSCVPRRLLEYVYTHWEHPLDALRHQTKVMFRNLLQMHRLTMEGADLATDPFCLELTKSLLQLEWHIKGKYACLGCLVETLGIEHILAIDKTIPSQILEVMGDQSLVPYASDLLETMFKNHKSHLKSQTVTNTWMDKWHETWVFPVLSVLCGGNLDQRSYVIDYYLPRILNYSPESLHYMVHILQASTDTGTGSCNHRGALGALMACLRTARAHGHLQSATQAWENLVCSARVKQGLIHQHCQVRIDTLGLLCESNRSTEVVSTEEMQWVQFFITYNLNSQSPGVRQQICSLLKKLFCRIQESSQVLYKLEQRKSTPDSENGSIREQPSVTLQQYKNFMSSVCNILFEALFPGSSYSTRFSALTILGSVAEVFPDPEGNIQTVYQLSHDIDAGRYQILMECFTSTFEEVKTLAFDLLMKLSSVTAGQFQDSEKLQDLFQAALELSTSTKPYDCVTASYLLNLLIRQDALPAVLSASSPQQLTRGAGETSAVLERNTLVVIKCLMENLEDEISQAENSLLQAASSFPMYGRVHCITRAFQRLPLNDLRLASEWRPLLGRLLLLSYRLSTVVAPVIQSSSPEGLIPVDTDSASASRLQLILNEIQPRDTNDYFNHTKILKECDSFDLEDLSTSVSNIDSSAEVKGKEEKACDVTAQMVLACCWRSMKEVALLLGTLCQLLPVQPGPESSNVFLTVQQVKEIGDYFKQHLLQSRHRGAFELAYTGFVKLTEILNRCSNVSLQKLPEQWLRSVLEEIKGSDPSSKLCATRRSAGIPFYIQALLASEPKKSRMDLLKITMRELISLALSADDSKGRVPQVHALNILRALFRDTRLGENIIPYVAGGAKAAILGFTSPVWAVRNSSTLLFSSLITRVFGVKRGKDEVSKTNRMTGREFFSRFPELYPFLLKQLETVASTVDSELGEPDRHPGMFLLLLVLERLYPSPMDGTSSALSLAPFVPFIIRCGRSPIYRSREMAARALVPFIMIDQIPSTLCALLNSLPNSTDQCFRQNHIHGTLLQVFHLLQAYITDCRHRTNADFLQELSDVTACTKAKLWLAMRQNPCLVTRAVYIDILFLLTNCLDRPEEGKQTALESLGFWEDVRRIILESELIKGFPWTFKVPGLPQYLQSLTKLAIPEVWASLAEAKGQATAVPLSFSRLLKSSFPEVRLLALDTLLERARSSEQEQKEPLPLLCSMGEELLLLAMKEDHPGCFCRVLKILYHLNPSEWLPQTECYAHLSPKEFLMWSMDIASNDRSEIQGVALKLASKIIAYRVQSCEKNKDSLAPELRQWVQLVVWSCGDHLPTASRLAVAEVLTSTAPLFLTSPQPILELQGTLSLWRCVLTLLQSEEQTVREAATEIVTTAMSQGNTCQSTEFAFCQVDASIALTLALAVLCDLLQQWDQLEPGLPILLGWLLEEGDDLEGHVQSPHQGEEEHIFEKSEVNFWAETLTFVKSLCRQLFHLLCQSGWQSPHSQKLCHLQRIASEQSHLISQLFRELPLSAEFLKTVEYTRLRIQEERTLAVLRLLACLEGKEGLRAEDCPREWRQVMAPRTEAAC
# UniProt Q6YHU6: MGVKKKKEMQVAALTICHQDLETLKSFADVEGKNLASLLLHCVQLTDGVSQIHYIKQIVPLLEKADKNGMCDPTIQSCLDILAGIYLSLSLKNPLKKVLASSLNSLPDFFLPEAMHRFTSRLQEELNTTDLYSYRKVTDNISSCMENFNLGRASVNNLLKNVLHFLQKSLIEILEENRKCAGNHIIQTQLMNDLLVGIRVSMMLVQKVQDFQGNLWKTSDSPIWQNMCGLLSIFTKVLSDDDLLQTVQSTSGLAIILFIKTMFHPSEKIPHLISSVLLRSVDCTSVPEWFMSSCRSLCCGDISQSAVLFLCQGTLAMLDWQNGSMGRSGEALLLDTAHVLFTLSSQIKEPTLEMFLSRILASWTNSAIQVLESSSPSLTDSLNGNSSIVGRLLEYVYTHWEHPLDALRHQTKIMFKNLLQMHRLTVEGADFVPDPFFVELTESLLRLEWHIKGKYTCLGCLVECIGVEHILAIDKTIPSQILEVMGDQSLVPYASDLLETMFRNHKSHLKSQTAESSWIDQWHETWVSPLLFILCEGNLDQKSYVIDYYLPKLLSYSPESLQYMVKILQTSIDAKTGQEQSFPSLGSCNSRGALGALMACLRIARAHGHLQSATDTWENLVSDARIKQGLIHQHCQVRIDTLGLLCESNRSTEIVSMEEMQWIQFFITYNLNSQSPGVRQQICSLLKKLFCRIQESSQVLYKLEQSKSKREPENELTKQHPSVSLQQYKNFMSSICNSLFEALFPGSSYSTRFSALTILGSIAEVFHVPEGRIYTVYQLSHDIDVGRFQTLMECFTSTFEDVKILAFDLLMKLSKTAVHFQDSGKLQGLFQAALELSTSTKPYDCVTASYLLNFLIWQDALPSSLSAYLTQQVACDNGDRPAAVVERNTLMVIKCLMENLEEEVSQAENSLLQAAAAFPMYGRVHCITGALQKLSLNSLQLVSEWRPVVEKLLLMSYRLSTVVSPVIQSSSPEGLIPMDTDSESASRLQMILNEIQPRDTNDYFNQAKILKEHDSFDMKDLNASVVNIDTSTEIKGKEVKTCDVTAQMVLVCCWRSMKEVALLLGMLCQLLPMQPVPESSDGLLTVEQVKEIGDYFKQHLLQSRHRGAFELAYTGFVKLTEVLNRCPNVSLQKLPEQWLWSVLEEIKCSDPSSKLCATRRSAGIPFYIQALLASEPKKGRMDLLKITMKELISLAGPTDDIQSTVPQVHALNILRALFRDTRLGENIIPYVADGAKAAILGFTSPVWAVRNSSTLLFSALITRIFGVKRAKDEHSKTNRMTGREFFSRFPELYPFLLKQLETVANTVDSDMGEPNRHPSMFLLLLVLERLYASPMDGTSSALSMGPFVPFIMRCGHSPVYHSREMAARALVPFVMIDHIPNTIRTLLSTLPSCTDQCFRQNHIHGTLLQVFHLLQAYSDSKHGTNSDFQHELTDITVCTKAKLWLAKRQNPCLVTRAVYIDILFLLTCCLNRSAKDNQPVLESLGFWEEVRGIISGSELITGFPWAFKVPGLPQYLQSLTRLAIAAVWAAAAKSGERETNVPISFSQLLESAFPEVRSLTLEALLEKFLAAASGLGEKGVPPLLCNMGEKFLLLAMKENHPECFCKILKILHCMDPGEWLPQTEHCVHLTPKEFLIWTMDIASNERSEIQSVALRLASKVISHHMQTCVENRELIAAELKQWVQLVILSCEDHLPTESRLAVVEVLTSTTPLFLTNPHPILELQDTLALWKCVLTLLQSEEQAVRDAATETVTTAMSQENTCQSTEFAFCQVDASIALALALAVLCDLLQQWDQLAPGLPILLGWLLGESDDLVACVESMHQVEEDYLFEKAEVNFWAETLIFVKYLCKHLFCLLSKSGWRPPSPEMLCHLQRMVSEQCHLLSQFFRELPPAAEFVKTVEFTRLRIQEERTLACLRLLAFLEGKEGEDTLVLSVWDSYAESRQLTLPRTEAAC
# Results are given in words; binding and its absence hold for the method and conditions named. Binding seen in cells or lysates may run through a third protein. Some entries that bind do so weakly or less than the wild type.
# Columns and labels:
# [1] = biological target: Fas-associated death domain (FADD), human (human (endogenous in HeLa)) (UniProt Q13158); assay: co-IP; endogenous proteins in lysates of HeLa cells under thapsigargin-induced ER stress; antibody 2 h, then Protein A/G Plus agarose overnight at 4 °C; western blot
# [2] = biological target: death receptor 5 (DR5), human (human (endogenous in HeLa)) (UniProt O14763); assay: as above
# [3] = biological target: SERCA2 (Sarco/Endoplasmic Reticulum Ca2+-ATPase 2), mouse (mouse (endogenous in MIN6)) (UniProt O55143); assay: proximity ligation; DuoLink PLA in MIN6 beta-cell line on chamber slides; THADA with anti-rabbit PLUS probe, SERCA2/RyR with anti-mouse MINUS probe; confocal microscopy
# [4] = biological target: T1, Fas-associated death domain (FADD), mouse (mouse (endogenous in MIN6)) (UniProt Q61160); assay: co-IP; endogenous proteins in MIN6 beta-cell lysates (RIPA buffer); antibody 2 h, then Protein A/G Plus agarose overnight at 4 °C; IgG as negative control; western blot; cells untreated (SERCA2, RyR) or treated with 1 uM thapsigargin for 24 h (FADD, caspase-8; Fig. 6h also untreated, control and Thada-SAM cells)
# T1 sequence: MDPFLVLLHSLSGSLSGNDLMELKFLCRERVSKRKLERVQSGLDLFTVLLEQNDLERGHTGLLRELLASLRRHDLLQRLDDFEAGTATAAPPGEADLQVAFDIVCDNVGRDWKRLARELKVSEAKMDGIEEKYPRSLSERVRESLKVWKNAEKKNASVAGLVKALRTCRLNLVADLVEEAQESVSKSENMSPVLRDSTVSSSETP
# [5] = biological target: SERCA2 (Sarco/Endoplasmic Reticulum Ca2+-ATPase 2), mouse (mouse (endogenous in MIN6)) (UniProt O55143); assay: as above
# [6] = biological target: T2, caspase-8, mouse (mouse (endogenous in MIN6)) (UniProt O89110); assay: as above
# T2 sequence: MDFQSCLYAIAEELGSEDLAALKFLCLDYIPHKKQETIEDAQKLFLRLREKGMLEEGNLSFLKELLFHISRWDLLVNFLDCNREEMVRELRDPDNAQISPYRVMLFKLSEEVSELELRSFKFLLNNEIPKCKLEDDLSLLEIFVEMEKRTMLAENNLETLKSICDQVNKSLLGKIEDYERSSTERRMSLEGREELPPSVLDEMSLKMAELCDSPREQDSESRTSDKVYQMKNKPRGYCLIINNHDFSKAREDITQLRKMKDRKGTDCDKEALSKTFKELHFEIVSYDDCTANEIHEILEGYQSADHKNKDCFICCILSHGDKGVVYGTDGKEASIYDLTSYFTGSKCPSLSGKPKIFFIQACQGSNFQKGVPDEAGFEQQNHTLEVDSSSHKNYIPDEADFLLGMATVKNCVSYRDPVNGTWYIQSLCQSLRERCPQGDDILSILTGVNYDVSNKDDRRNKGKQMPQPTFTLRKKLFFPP
# [7] = biological target: Thyroid Adenoma Associated (THADA), mouse (mouse (endogenous in MIN6)) (UniProt A8C756); assay: as above
substance,measurement,setting,value
"Thyroid Adenoma Associated (THADA), human (from UniProt Q6YHU6 1-1953)",binding,[1],binds
same,binding,[2],binds
"Thyroid Adenoma Associated (THADA), mouse (from UniProt A8C756 1-1938)",binding,[3],binds
same,binding,[4],binds
same,binding,[5],binds
same,binding,[6],binds
"Fas-associated death domain (FADD), mouse (from UniProt Q61160 1-205)",binding,[7],binds
